{"sequences": {"note": "Chains of the proteins cited; added tags and fusions are not shown. Residues count along the entry.", "UniProt P07288, 25-261": "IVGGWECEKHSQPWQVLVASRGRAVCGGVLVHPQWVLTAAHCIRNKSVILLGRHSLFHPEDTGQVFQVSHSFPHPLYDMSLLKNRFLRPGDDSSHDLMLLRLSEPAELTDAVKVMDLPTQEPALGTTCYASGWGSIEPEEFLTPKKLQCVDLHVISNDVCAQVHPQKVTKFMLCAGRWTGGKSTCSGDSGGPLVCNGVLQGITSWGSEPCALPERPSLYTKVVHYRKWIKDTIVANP"}, "source": "paper PMC12787490", "target": "prostate-specific antigen (PSA) (human) (UniProt P07288)", "experiment": "binding assay", "conditions": "2 mM MgCl2, 0.02% Tween-20 in PBS pH 7.4 (original work); ELONA: PSA 250 ng/well adsorbed; aptamers 3.9-500 nM in PBS + 5 mM MgCl2, 1 h at 37 C; block 3% BSA + 100 nM ssDNA mix; wash PBS 0.05% Tween-20; commercial protein; folded or branched DNA", "note": "pKd: −log10 of the molar value. For at least one entry, the source does not settle the construct or the ends of the probe.", "data": [{"sequence": "GGGCGGGGCGGACGAGACAGTAAGGGCTGTGGGTGTGGTG [AS2]", "values": [{"measurement": "pKd", "result": 12.15}]}]}
